Test results taken from the supplement of paper PMC4604168 (melanoma cell lines).
The list shows a part of the results. Many values rest on one well or one pass, so single values are uncertain.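 Cells were imaged in 1,536-well plates, and nuclei stained with an antibody against cleaved PARP were counted against all DNA-stained nuclei to give the apoptosis fraction. Screening doses were chosen to leave most cells alive, and resting and induced cleaved-PARP levels differ strongly between cell lines.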

Test system: LOXIMVI
Assay: cleaved PARP positive nuclei fraction relative to DMSO control; melanoma cells; higher = more apoptosis
Conditions: library dose: low library concentration; 72 h

| Structure (SMILES) | cleaved PARP positive nuclei fraction |
| --- | --- |
| N#CC[C@H](C1CCCC1)n1cc(-c2ncnc3[nH]ccc23)cn1 [ruxolitinib] + NC1(c2ccc(-c3nc4ccn5c(=O)[nH]nc5c4cc3-c3ccccc3)cc2)CCC1 [MK2206] (first compound 1 µM, partner dose 0.4 µM) | 214% |
| CCCCCCCCCCCCCCCCCCOP(=O)([O-])OC1CC[N+](C)(C)CC1 [Perifosine] + Cn1c(=O)n(-c2ccc(C(C)(C)C#N)cc2)c2c3cc(-c4cnc5ccccc5c4)ccc3ncc21 [NVP-BEZ235] (first compound 0.4 µM, partner dose 0.004 µM) | 310% |
| CC[C@]1(O)C[C@H]2CN(CCc3c([nH]c4ccccc34)[C@@](C(=O)OC)(c3cc4c(cc3OC)N(C=O)[C@H]3[C@@](O)(C(=O)OC)[C@H](OC(C)=O)[C@]5(CC)C=CCN6CC[C@]43[C@@H]65)C2)C1 [vincristine] + CC(=O)O[C@@]12CO[C@@H]1C[C@H](O)[C@@]1(C)C(=O)[C@H](O)C3=C(C)[C@@H](OC(=O)[C@H](O)[C@@H](NC(=O)OC(C)(C)C)c4ccccc4)C[C@@](O)([C@@H](OC(=O)c4ccccc4)[C@H]21)C3(C)C [Docetaxel] (first compound 0.0001 µM, partner dose 0.0001 µM) | 174% |
| CCCCCCCCCCCCCCCCCCOP(=O)([O-])OC1CC[N+](C)(C)CC1 [Perifosine] + CO[C@H]1C[C@@H]2CC[C@@H](C)[C@@](O)(O2)C(=O)C(=O)N2CCCC[C@H]2C(=O)O[C@H]([C@H](C)C[C@@H]2CC[C@@H](OCCO)[C@H](OC)C2)CC(=O)[C@H](C)/C=C(\C)[C@@H](O)[C@@H](OC)C(=O)[C@H](C)C[C@H](C)/C=C/C=C/C=C/1C [everolimus] (first compound 0.4 µM, partner dose 0.02 µM) | 69.2% |
